Here are results for 1 compound from US8809342B2, “Glucagon receptor modulators” (Pfizer Inc., priority 2010, dated 2014).

Sequences of proteins named here, by UniProt entry; tags and fusion partners are left off. Residues count along the entry.
UniProt P47871, 26-477 limits assumed: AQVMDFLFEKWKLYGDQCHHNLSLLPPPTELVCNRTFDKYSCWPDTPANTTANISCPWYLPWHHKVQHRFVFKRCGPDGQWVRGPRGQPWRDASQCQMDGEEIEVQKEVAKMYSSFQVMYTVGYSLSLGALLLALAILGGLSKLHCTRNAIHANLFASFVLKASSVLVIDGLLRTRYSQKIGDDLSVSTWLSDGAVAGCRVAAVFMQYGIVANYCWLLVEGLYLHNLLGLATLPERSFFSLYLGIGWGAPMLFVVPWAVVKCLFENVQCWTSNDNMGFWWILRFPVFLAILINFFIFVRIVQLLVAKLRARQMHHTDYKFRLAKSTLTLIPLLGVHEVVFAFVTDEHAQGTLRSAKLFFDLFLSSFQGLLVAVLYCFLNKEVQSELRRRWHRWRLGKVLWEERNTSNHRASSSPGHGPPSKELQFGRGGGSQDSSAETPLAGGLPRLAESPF

In the experiment the target is human glucagon receptor (Homo sapiens, UniProt P47871). Kind of experiment: Glucagon cAMP assay (Cisbio cAMP detection). It counts as cell-based. The conditions noted are these: read-out: cAMP kb (nm); CHOK1 cells stably transfected with the human glucagon receptor; 100 pM glucagon challenge; Kb calculated from IC50 with a modified Cheng-Prusoff equation.

SMILES strings stand for the structures. The structures given here were assigned with low confidence; some may be wrong.

With `Cc1cc(NC(CC(C)C)c2ccc(C(=O)NCCC(=O)O)cn2)cc(C)c1-c1ccc(C(F)(F)F)cc1` (stereo not shown), the Kb is 310 nM.
